Laboratory results: PubChem BioAssay AID1671195 (Yale University, 2021)

- Assay: 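Regulators of LDL receptor activity judged by labelled LDL uptake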 (primary screen)
- Cells: human Huh7 hepatoma cells
- Reagent: siRNA pool against human genes, 18 nM
- Timing: about 2 to 2.5 days of knockdown, then 8 h LDL uptake
- Conditions: DiI-labelled LDL at 30 µg/ml for 8 h, in lipoprotein-deficient serum medium
- Read-out: 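Fluorescent LDL signal imaged in cells, scaled to the plate median, robust z-score for each replicate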
- Reading the numbers: robust z-score: higher = more LDL uptake after knockdown
- Active means: 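Active when two or more replicates show a robust z-score above 2 or below -2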
Shown is an unselected part of about 22,000 reagents. In the full data, about 1,510 (6.9%) were called active. 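Active includes knockdowns raising or lowering LDL uptake; positive z-scores mean more uptake, negative mean less.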 A number with no mark means an inactive call. Reagent sequences are not shown.

What did the screen give for RAB1A (RAB1A, member RAS oncogene family)?
robust z-score, replicate 1: 2.18; robust z-score, replicate 2: -0.225; robust z-score, replicate 3: 0.161

How did the screen score OR5M1 (olfactory receptor family 5 subfamily M member 1)?
robust z-score, replicate 1: 0.58; robust z-score, replicate 2: 0.825; robust z-score, replicate 3: 0.49

How did the screen score DSP (desmoplakin)?
robust z-score, replicate 1: 1.82; robust z-score, replicate 2: -0.952; robust z-score, replicate 3: 0.979

Which result is listed for EXTL3 (exostosin like glycosyltransferase 3)?
robust z-score, replicate 1: -0.837; robust z-score, replicate 2: -1.04; robust z-score, replicate 3: -0.773

What is on record for LOC440724 (retired record)?
robust z-score, replicate 1: 0.0864; robust z-score, replicate 2: -0.149; robust z-score, replicate 3: 0.672

Which result is listed for LMBRD1 (LMBR1 domain containing 1)?
robust z-score, replicate 1: -1.23; robust z-score, replicate 2: -1.36; robust z-score, replicate 3: 1.87

What did the screen give for PTPRZ1 (protein tyrosine phosphatase receptor type Z1)?
robust z-score, replicate 1: -0.376; robust z-score, replicate 2: 0.0473; robust z-score, replicate 3: -0.109

With NCAPD2 (non-SMC condensin I complex subunit D2), what was measured?
robust z-score, replicate 1: -0.657; robust z-score, replicate 2: 0.346; robust z-score, replicate 3: 0.238

What did the screen give for RPA1 (replication protein A1)?
robust z-score, replicate 1: 3.52 (active); robust z-score, replicate 2: 1.97; robust z-score, replicate 3: 3.54

For SYNDIG1 (synapse differentiation inducing 1), what was measured?
robust z-score, replicate 1: 0.0347; robust z-score, replicate 2: 0.449; robust z-score, replicate 3: 0.167

For ABI3 (ABI family member 3), what was measured?
robust z-score, replicate 1: 0.753; robust z-score, replicate 2: 0.619; robust z-score, replicate 3: 0.699

With PDCD6 (programmed cell death 6), what was measured?
robust z-score, replicate 1: 0.752; robust z-score, replicate 2: 0.6; robust z-score, replicate 3: 0.703

For GP9 (glycoprotein IX platelet), what was measured?
robust z-score, replicate 1: 0.0917; robust z-score, replicate 2: 0.148; robust z-score, replicate 3: 0.39

With RPSAP2 (ribosomal protein SA pseudogene 2), what was measured?
robust z-score, replicate 1: -1.14; robust z-score, replicate 2: -1.17; robust z-score, replicate 3: -1.33

For FETUB (fetuin B), what does the deposit list?
robust z-score, replicate 1: -0.379; robust z-score, replicate 2: 0.566; robust z-score, replicate 3: 0.173

Which result is listed for ARHGAP26 (Rho GTPase activating protein 26)?
robust z-score, replicate 1: 0.915; robust z-score, replicate 2: 0.991; robust z-score, replicate 3: 0.916

Which result is listed for LOC440853 (retired record)?
robust z-score, replicate 1: -3.46; robust z-score, replicate 2: 1.28; robust z-score, replicate 3: 1.34

How did the screen score FLJ90680 (retired record)?
robust z-score, replicate 1: -0.507; robust z-score, replicate 2: 0.00574; robust z-score, replicate 3: -0.119

For UCMA (upper zone of growth plate and cartilage matrix associated), what does the deposit list?
robust z-score, replicate 1: -0.0371; robust z-score, replicate 2: 0.162; robust z-score, replicate 3: -0.0627

With LOC440505 (retired record), how do the results read?
robust z-score, replicate 1: 0.923; robust z-score, replicate 2: 1.23; robust z-score, replicate 3: 0.542

What is on record for FARP1 (FERM, ARH/RhoGEF and pleckstrin domain protein 1)?
robust z-score, replicate 1: 0.926; robust z-score, replicate 2: 0.372; robust z-score, replicate 3: -0.527

Which result is listed for OR6C4 (olfactory receptor family 6 subfamily C member 4)?
robust z-score, replicate 1: 0.508; robust z-score, replicate 2: -0.0101; robust z-score, replicate 3: 0.4

For LOC389224 (retired record), how do the results read?
robust z-score, replicate 1: -0.285; robust z-score, replicate 2: -0.734; robust z-score, replicate 3: -0.385

What is on record for LRRC18 (leucine rich repeat containing 18)?
robust z-score, replicate 1: -1.63; robust z-score, replicate 2: -1.48; robust z-score, replicate 3: -1.28

Copied from the list:
NCAPD2 (non-SMC condensin I complex subunit D2), robust z-score, replicate 1: -0.657
Under “robust z-score, replicate 1”, EXTL3 (exostosin like glycosyltransferase 3) reads -0.837
